# Measurements reported in PubChem BioAssay AID1224828 (NIAID, 2016)
# Aim: 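Find genes required for NF-kappaB p65 moving into the nucleus after LPS in mouse macrophages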 (primary screen)
# Cell system: mouse RAW264.7 G9 macrophage reporter cells (GFP-p65, Tnf promoter-mCherry)
# Reagent: siRNA pool against mouse genes, 100 nM
# Time to read-out: 2 days siRNA transfection, then 40 min LPS before fixation
# Challenge: LPS (Salmonella minnesota R595) at 10 ng/ml
# Measured: 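Microscopy ratio of nuclear to perinuclear-ring GFP-p65 signal, scaled to the plate median; gene score is the average of two replicate robust z-scores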
# Direction: p65 translocation robust z-score: higher = more nuclear NF-kappaB p65 after LPS than the plate median; nuclear/cytoplasmic p65 ratio: higher = more nuclear NF-kappaB p65
# Hit rule: 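Active if robust z is above 3.3 (negative regulators) or below -1.56, the Tlr4 control median (positive regulators); activity score 50 or more; control wells not called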
# Meaning of the calls: active = hit (p65 shift raised or lowered); inactive = no clear change
# This is one part, drawn at random, of about 17,000 deposited reagents. Of all reagents, 762 (4.5%) were called active. 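Active calls include both raised and lowered p65 entry, mostly lowered; wells with fewer than 50 cells lack a z-score.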 The raw values are shown without normalisation. The numbers tell different reagents against one gene apart.
target,pool no.,p65 translocation robust z-score,"nuclear/cytoplasmic p65 ratio, rep 1","nuclear/cytoplasmic p65 ratio, rep 2",low cell count flag,outcome
Nphs1 (GeneID 54631),1,,1.45,1.28,fewer than 50 cells per well; well left out of scoring,inactive
Bmp1 (GeneID 12153),1,2.16,1.96,1.92,enough cells to score,inactive
Fkbp2 (GeneID 14227),1,0.22,1.49,1.37,enough cells to score,inactive
Hoxc13 (GeneID 15422),1,0.31,1.45,1.44,enough cells to score,inactive
Tmem106a (GeneID 217203),1,1.72,1.83,2.14,enough cells to score,inactive
Or10u3 (GeneID 258266),1,,1.27,1.17,fewer than 50 cells per well; well left out of scoring,inactive
Tsg101 (GeneID 22088),1,-1.45,1.38,1.24,enough cells to score,inactive
Ncoa6 (GeneID 56406),1,0.15,1.46,1.37,enough cells to score,inactive
Sult4a1 (GeneID 29859),1,,1.27,1.1,fewer than 50 cells per well; well left out of scoring,inactive
Kcnmb1 (GeneID 16533),1,2.69,1.54,1.79,enough cells to score,inactive
Uggt2 (GeneID 66435),1,-0.11,1.28,1.51,enough cells to score,inactive
Trabd (GeneID 67976),1,1.98,1.55,1.8,enough cells to score,inactive
Or8c15 (GeneID 258333),1,-0.85,1.33,1.17,enough cells to score,inactive
Psmg1 (GeneID 56088),1,-1.14,1.24,1.29,enough cells to score,inactive
Snrnp35 (GeneID 76167),1,,1.33,1.1,fewer than 50 cells per well; well left out of scoring,inactive
Crb3 (GeneID 224912),1,-0.1,1.62,1.71,enough cells to score,inactive
Tnfaip8l2 (GeneID 69769),1,,1.35,1.27,fewer than 50 cells per well; well left out of scoring,inactive
Defa-rs10 (GeneID 13219),1,0.26,1.59,1.6,enough cells to score,inactive
Eln (GeneID 13717),1,0,1.46,1.37,enough cells to score,inactive
Cd37 (GeneID 12493),1,-0.47,1.38,1.33,enough cells to score,inactive
Bche (GeneID 12038),1,-0.08,1.53,1.67,enough cells to score,inactive
Ucp2 (GeneID 22228),1,-0.43,1.49,1.41,enough cells to score,inactive
Cpe (GeneID 12876),1,0.42,1.37,1.41,enough cells to score,inactive
Aldh8a1 (GeneID 237320),1,-0.33,1.5,1.69,enough cells to score,inactive
Cfc1 (GeneID 12627),1,-0.3,1.37,1.39,enough cells to score,inactive
Ifi27 (GeneID 52668),1,-1.07,1.37,1.66,enough cells to score,inactive
Eef1g (GeneID 67160),1,-1.25,1.38,1.12,enough cells to score,inactive
Arhgef28 (GeneID 110596),1,2.2,1.52,2.12,enough cells to score,inactive
Ms4a5 (GeneID 269063),1,1.81,2.09,1.85,enough cells to score,inactive
Pip5kl1 (GeneID 227733),1,1.01,1.62,1.5,enough cells to score,inactive
Pfdn5 (GeneID 56612),1,-1.15,1.39,1.18,enough cells to score,inactive
Pfdn5 (GeneID 56612),2,-0.6,1.32,1.34,enough cells to score,inactive
Commd10 (GeneID 69456),1,0.71,1.68,1.97,enough cells to score,inactive
Pacsin2 (GeneID 23970),1,,1.35,1.2,fewer than 50 cells per well; well left out of scoring,inactive
Isca1 (GeneID 69046),1,-0.63,1.51,1.49,enough cells to score,inactive
Pabir3 (GeneID 73866),1,-1.17,1.12,1.12,enough cells to score,inactive
Krt8 (GeneID 16691),1,0.73,1.61,1.45,enough cells to score,inactive
Tub (GeneID 22141),1,-0.68,1.4,1.42,enough cells to score,inactive
Scnn1b (GeneID 20277),1,0.55,1.53,1.74,enough cells to score,inactive
Celf6 (GeneID 76183),1,,1.13,1.16,fewer than 50 cells per well; well left out of scoring,inactive
Krtap26-1 (GeneID 69533),1,,1.5,1.41,fewer than 50 cells per well; well left out of scoring,inactive
Rab21 (GeneID 216344),1,-1.03,1.39,1.35,enough cells to score,inactive
Phox2b (GeneID 18935),1,0.36,1.59,1.41,enough cells to score,inactive
Tgs1 (GeneID 116940),1,0.34,1.29,1.39,enough cells to score,inactive
H1f5 (GeneID 56702),1,-0.91,1.61,1.32,enough cells to score,inactive
Ccbe1 (GeneID 320924),1,,1.4,1.63,fewer than 50 cells per well; well left out of scoring,inactive
Mmp13 (GeneID 17386),1,0.23,1.5,1.35,enough cells to score,inactive
Zan (GeneID 22635),1,-0.46,1.33,1.21,enough cells to score,inactive
Dlgap2 (GeneID 244310),1,-1.6,1.23,1.3,enough cells to score,active
Tssk2 (GeneID 22115),1,0.53,1.77,1.29,enough cells to score,inactive
Magix (GeneID 54634),1,0.93,1.4,1.35,enough cells to score,inactive
Trim35 (GeneID 66854),1,-1.44,1.18,1.04,enough cells to score,inactive
Erh (GeneID 13877),1,2.19,1.8,1.61,enough cells to score,inactive
Msx2 (GeneID 17702),1,-0.47,1.42,1.24,enough cells to score,inactive
Atad3a (GeneID 108888),1,-0.97,1.33,1.51,enough cells to score,inactive
Csnk1g1 (GeneID 214897),1,-0.5,1.59,1.34,enough cells to score,inactive
Baiap2 (GeneID 108100),1,-0.55,1.52,1.55,enough cells to score,inactive
Arel1 (GeneID 68497),1,-0.96,1.41,1.31,enough cells to score,inactive
Kif17 (GeneID 16559),1,-1.34,1.29,1.21,enough cells to score,inactive

Targets above whose gene name begins with H or h (2):
target,pool no.,p65 translocation robust z-score,"nuclear/cytoplasmic p65 ratio, rep 1","nuclear/cytoplasmic p65 ratio, rep 2",low cell count flag,outcome
Hoxc13 (GeneID 15422),1,0.31,1.45,1.44,enough cells to score,inactive
H1f5 (GeneID 56702),1,-0.91,1.61,1.32,enough cells to score,inactive
